For at least one entry, the source does not settle the construct or the ends of the probe. Negatives hold for the conditions tested. Tags and fusion partners may be left off the protein sequences shown. For some of these results: The comparison behind a weaker result is the experiment's own reference, which may not be listed here.
Assays:
[1] = biological target: T1, ArnR ([4Fe-4S] form) (Corynebacterium glutamicum ATCC 13032) (UniProt Q8NR72); test: native MS; details: native MS: DNA in 100 mM ammonium acetate, pH 8, recombinant protein, protein details: C-terminal His
T1 sequence (looked up, limits assumed): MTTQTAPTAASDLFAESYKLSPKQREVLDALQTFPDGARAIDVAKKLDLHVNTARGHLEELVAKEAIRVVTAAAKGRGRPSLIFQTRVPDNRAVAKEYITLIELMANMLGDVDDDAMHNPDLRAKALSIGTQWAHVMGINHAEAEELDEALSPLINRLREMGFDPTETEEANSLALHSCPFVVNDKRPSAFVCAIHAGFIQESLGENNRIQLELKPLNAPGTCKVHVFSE

[2] = biological target: T1, ArnR ([4Fe-4S] form) (Corynebacterium glutamicum ATCC 13032); test: SPR; details: anaerobic, 1 mM DTT, SPR: HBS+P (10 mM HEPES, 150 mM NaCl, surfactant P20) with 1 mM DTT, pH 7.4, 25 C, recombinant protein, protein details: C-terminal His

“GGATTTAATCTAATTAAATAAATCCCAGGA (double strand) [hmp promoter 30 bp (JC05_F/JC06_R)]”: no binding ([1]; di-nitrosylated [4Fe-4S] dimer (2 NO per dimer, DEA NONOate, ~2 NO per cluster)); binds more weakly ([1]; mono-nitrosylated [4Fe-4S] dimer (1 NO per dimer, DEA NONOate, ~2 NO per cluster), retains DNA binding to some extent).

In the case of “GGATTTAATCTAATTAAATAAATCCCAGGA / TCCTGGGATTTATTTAATTAGATTAAATCCCCTACCCTACGTCCTCCTGC / GCAGGAGGACGTAGGGTAGG”, the Kd ([2]; concentration as ArnR dimer (60 nM as cluster), label: biotin on ReDCaT_F (S9)) is reported as 30 nM.

“GCAGGAGGACGTAGGGTAGG (double strand) [ReDCaT reference duplex (ReDCaT_F/ReDCaT_R)]”: no binding ([2]; negligible binding to reference surface, label: biotin on ReDCaT_F).
